Assay results published in PMC12102759.
These are yes or no findings as the source states them, for the method shown.

By UniProt entry, the sequences of proteins in these tests, tags left out. Where a name states a change or a piece, a line headed by the entry shows the natural chain unless it says otherwise. Residues count along the entry.
UniProt Q9Y490, residues 309-401: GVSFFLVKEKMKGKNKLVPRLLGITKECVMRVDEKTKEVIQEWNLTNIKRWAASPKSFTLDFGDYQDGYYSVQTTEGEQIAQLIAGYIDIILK
UniProt Q6XPS3: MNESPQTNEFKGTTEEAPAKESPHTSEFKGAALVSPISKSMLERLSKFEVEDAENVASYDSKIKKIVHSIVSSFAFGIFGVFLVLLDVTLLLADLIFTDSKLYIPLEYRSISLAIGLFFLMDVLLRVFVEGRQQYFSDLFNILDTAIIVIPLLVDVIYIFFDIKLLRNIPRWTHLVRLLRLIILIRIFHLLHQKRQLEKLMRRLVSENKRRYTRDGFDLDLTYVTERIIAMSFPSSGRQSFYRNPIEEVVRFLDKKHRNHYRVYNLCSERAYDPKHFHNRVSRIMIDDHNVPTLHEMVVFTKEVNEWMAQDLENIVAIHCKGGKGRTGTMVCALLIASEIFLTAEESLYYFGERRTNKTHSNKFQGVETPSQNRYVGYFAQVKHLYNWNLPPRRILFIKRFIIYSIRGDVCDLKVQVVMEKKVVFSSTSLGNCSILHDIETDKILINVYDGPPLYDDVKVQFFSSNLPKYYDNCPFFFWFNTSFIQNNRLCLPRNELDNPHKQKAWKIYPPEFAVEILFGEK

Molecular target: talin‐1 PTB domain (309–401), tag cleaved, for FP (human) (UniProt Q9Y490)
Assay: fluorescence polarisation; human domains; saturation with FITC-labelled probe peptide or displacement by unlabelled peptide; 50 mM KPO4 pH 7.5, DTT; triplicates; the text does not tell which of the two gave each KD; both purified

Substance: TPTE2_(92‐107) F97A peptide (from UniProt Q6XPS3 92-107)
- binding: no binding
